Construct, isoform or probe ends are uncertain for at least one entry. The direction of at least one scale is not stated here.

Protein sequences, listed by entry. Tags and fused reporters are not part of them. Lines headed by an entry give the natural chain unless they say otherwise; changes in a name come on top.
UniProt Q14526: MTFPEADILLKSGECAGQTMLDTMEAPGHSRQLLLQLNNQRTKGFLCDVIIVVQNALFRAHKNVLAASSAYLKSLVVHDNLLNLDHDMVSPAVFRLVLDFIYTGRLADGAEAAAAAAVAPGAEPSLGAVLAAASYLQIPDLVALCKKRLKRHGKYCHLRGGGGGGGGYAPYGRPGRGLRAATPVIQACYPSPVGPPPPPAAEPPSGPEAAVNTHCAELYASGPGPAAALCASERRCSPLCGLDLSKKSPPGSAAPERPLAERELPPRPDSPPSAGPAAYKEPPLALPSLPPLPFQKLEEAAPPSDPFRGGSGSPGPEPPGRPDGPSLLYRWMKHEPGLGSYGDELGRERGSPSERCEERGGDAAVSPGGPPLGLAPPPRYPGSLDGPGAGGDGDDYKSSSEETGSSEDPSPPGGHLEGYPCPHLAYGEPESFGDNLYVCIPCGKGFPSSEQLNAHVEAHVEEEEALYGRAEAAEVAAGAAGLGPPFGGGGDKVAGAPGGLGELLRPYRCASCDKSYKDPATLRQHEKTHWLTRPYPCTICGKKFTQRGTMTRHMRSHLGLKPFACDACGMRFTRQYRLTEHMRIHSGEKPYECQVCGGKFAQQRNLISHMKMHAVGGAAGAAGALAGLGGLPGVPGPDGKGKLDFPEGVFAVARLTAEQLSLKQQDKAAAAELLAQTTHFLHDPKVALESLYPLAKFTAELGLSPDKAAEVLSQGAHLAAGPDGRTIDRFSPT

The series deals with HIC1 (hypermethylated in cancer 1) (Homo sapiens) (UniProt Q14526). As to the kind of experiment: EMSA. The note with it: 1 mM zinc acetate, LI-COR EMSA kit 1x binding buffer, 1x DTT/Tween-20, 1 ug poly(dI-dC), 0.05% NP-40, 1 mM zinc acetate, 435 ng HIC1, 50 fmol DNA, 20 min room temperature, 6% TBE gel, commercial protein, protein details: c-Myc/DDK (FLAG), label: 5' IRDye700, scale: band intensity. In general terms: Mobility shift assays separate free from complexed probe on a gel.

For “GCCAGACCCCGCCTCCTGGCACAGAGGACCACGCCCGGC (double strand) [rs7594852-C 39 bp oligo]”, under “complex supershifted by anti-DDK antibody in separate lane”, the binding signal came out at 204.
The sequence “GCCAGACCCCGCCTCCTGGTACAGAGGACCACGCCCGGC (double strand) [rs7594852-T 39 bp oligo]” yielded a binding signal (P = 0.013 vs C allele) of 76.6.

Source of the values: PMC6718389.
